Assay results published in doi:10.1101/2023.10.26.564242.
These are yes or no findings as the source states them, for the method shown. Some binding calls cover weakened binding; strength is not graded here. Where a sequence is shown, tags or fusion partners need not be part of it.

How the values were obtained:
[1] = target: T1, FHF complex with HOOK3 residues 571-718 (FTS, HOOK3 571-718, FHIP1B) (human) (UniProt Q9H8T0+Q86VS8+Q8N612); assay: cross-linking
T1 sequence 1: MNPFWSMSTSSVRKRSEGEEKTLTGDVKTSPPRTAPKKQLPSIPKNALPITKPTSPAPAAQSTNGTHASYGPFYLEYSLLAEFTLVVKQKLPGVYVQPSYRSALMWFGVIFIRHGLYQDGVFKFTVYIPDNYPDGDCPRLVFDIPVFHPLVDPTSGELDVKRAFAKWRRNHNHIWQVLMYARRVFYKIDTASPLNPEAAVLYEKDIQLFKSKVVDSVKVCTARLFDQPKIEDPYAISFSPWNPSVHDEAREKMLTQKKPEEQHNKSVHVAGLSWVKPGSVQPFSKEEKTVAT
T1 sequence 2: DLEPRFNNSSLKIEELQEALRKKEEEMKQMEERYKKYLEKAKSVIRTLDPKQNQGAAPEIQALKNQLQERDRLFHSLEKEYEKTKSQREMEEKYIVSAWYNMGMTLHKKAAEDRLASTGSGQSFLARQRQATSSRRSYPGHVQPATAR
T1 sequence 3: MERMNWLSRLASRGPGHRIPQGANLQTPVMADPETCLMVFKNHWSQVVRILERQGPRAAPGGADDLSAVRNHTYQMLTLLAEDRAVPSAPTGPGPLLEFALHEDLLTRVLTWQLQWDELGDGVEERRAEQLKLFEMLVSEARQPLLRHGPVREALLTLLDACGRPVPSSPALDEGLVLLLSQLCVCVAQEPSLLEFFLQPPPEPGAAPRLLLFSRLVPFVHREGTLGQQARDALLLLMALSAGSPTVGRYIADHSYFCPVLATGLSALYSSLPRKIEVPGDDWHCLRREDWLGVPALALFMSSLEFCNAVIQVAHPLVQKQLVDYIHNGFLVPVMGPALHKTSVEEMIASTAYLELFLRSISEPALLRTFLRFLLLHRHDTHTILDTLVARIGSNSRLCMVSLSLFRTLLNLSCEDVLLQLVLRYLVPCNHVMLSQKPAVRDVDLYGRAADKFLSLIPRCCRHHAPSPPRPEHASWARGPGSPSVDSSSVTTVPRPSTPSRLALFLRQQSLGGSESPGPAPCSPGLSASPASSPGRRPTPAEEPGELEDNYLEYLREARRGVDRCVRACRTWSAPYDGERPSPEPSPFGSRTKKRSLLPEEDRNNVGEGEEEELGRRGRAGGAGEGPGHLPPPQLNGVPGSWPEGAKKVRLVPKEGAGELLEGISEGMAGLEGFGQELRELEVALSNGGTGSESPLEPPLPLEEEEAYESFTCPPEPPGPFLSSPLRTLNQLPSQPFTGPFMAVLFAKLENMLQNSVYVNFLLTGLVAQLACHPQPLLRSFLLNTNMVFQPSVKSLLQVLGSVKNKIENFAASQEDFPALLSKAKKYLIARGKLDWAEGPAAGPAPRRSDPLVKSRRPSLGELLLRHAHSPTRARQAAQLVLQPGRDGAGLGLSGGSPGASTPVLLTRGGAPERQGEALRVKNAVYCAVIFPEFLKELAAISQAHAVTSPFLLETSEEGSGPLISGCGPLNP

[2] = target: full-length FTS-HOOK3-FHIP1B (FHF) complex (human) (UniProt Q9H8T0+Q86VS8+Q8N612); assay: cross-linking
[3] = target: T2, FHF containing HOOK3 residues 451-718 (human) (UniProt Q9H8T0+Q86VS8+Q8N612); assay: cryo-EM structure
[4] = target: T2, FHF containing HOOK3 residues 451-718 (human); assay: SEC

Measured: binding

B1: GST-KIF1C stalk 674-922 (domain or fragment, UniProt O43896 674-922)
chain: SDSGDDSDKRSCEESWRLISSLREQLPPTTVQTIVKRCGLPSSGKRRAPRRVYQIPQRRRLQGKDPRWATMADLKMQAVKEICYEVALADFRHGRAEIEALAALKMRELCRTYGKPDGPGDAWRAVARDVWDTVGEEEGGGAGSGGGSEEGARGAEVEDLRAHIDKLTGILQEVKLQNSSKDRELQALRDRMLRMERVIPLAQDHEDENEEGGEVPWAPPEGSEAAEEAAPSDRMPSARPPSPPLSSWE
binds: all assays above
